According to publication PMC4299599, “Quantification of cytosolic interactions identifies Ede1 oligomers as key organizers of endocytosis” (Molecular Systems Biology, 2014):
These are yes or no findings as the source states them, for the method shown. Some entries that bind do so weakly or less than the wild type.

B1: Rvs161 (natural protein, S. cerevisiae, UniProt P25343 1-265, looked up)
chain: MSWEGFKKAINRAGHSVIIKNVDKTIDKEYDMEERRYKVLQRAGEALQKEAKGFLDSLRAVTASQTTIAEVISNLYDDSKYVAGGGYNVGNYYLQCVQDFDSETVKQLDGPLRETVLDPITKFSTYFKEIEEAIKKRDHKKQDFDAAKAKVRRLVDKPAKDASKLPRAEKELSLAKDIFENLNNQLKTELPQLVSLRVPYFDPSFEALIKIQLRFCTDGYTRLAQIQQYLDQQSRDDYANGLLDTKIEELLGQMTSLDICALGIK
notes: Rvs161, amphiphysin-like protein, S. cerevisiae; also called Rvs161-1myeGFP; Rvs161-3mCherry; source: chromosomally tagged at the endogenous locus, in the cytoplasm of living S. cerevisiae cells
B2: End3 (natural protein, S. cerevisiae, UniProt P39013 1-349, looked up)
chain: MPKLEQFEIKKYWQIFSGLKPIENKVNHDQVLPILYNSKLDSSVLNKIWFLADIDDDDNLDFEEFVICMRLIFDMVNKNISSVPDELPDWLIPGSKVNLIKERKKRKQIENADLPPKKEIKVDWYMSPDDLNQYEKIYNSCAKLTDGTITFNELSTKLSTKFFNISKTDLNKVWSLINPQNLPSIDRDPTFYFIHCLRQRNDLGAEIPASLPNSLAEVCNKKQLSYDLRSSQPPTKRKEEANEVDNLRDNGQNSSSDSSGSNVLSNEDSIKQKYASLTDDQVANMREQLEGLLNYKKSEKTQGGSKLSKRINIRSITDDLDNIEQQVEVLENYLNNKRHELQALQAEIN
notes: End3, S. cerevisiae; also called End3-3myeGFP; End3-3mCherry; source: chromosomally tagged at the endogenous locus, in the cytoplasm of living S. cerevisiae cells

Key:
Rvs161 (S. cerevisiae) [1] = target: T1, Rvs161 (S. cerevisiae) (UniProt P25343); test: condition: 1000 nM (only Kdeff-values < 1000 nM are shown); fluorescence cross-correlation spectroscopy (FCCS); in the cytoplasm of living yeast cells; first-named protein green (3myeGFP or 1myeGFP; eGFP for Don1), second red (3mCherry); self-interaction in diploid strains with one allele of each colour; apparent or effective KD (Kdeff) from single-cell measurements; only Kdeff values < 1000 nM are shown; values for self-interactions are upper limits
T1 sequence: B1 chain

Rvs161 (S. cerevisiae) [2] = target: T1, Rvs161 (S. cerevisiae); test: condition: detection range of FCCS: apparent KD up to ~1 μM; fluorescence cross-correlation spectroscopy (FCCS); self-interaction: living diploid yeast cells with one allele fused to (3)myeGFP and one to (3)mCherry, cytoplasm; apparent (effective) KD, to be taken as the upper limit since complexes of one colour are not seen
Rvs167 = target: T2, Rvs167 (S. cerevisiae, UniProt P39743 1-482); test: fluorescence cross-correlation spectroscopy (FCCS); living yeast cells, observation volume in the cytoplasm; one protein tagged with (3)myeGFP/eGFP and the other with 3mCherry in the same strain; apparent (effective) KD; interactions up to ~1 μM detectable
T2 construct: Rvs167, amphiphysin-like protein, S. cerevisiae; also called Rvs167-1myeGFP; source: chromosomally tagged at the endogenous locus, in the cytoplasm of living S. cerevisiae cells; not shown: 1myeGFP, C-terminal, kept

End3 (S. cerevisiae) [3] = target: T3, End3 (S. cerevisiae) (UniProt P39013); test: condition: 1000 nM (only Kdeff-values < 1000 nM are shown); fluorescence cross-correlation spectroscopy (FCCS); in the cytoplasm of living yeast cells; first-named protein green (3myeGFP or 1myeGFP; eGFP for Don1), second red (3mCherry); self-interaction in diploid strains with one allele of each colour; apparent or effective KD (Kdeff) from single-cell measurements; only Kdeff values < 1000 nM are shown; values for self-interactions are upper limits
T3 sequence: B2 chain

Ede1 (S. cerevisiae) = target: T4, Ede1 (S. cerevisiae) (UniProt P34216); test: as above
T4 sequence: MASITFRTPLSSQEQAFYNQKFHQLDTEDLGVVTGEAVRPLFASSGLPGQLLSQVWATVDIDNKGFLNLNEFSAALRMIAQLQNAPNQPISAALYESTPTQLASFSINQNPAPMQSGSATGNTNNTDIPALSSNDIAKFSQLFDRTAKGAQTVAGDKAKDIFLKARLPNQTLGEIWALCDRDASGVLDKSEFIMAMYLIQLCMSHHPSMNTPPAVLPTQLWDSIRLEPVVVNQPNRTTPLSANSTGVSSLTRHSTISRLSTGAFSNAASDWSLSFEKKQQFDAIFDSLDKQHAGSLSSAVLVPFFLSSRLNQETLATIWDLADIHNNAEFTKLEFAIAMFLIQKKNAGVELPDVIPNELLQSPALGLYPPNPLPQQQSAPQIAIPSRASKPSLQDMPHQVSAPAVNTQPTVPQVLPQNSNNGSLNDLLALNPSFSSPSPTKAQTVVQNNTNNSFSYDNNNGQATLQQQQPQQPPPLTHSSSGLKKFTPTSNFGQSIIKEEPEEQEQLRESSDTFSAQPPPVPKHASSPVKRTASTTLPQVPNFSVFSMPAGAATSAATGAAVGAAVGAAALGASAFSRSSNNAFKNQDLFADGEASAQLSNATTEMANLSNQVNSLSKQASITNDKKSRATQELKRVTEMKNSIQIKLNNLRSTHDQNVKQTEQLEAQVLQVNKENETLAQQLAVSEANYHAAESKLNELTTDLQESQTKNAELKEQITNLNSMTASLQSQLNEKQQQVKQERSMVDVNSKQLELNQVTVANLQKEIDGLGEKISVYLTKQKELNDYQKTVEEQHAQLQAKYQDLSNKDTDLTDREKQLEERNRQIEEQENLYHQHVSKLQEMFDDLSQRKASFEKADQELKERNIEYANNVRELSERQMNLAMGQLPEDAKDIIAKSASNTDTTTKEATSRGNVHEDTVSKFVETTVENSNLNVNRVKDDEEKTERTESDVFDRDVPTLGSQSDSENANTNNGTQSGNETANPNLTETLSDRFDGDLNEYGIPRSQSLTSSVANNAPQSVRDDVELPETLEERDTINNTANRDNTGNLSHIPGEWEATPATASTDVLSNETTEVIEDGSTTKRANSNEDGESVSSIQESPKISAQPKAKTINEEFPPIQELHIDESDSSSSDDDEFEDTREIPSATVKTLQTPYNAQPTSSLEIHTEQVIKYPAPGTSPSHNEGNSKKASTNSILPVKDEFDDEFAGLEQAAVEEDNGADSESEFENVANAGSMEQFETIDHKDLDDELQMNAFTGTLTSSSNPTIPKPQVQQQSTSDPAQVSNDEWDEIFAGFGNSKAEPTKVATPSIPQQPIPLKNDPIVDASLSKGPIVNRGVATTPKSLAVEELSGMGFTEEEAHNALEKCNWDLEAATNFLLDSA

End3 (S. cerevisiae) [4] = target: T3, End3 (S. cerevisiae); test: condition: detection range of FCCS: apparent KD up to ~1 μM; fluorescence cross-correlation spectroscopy (FCCS); self-interaction: living diploid yeast cells with one allele fused to (3)myeGFP and one to (3)mCherry, cytoplasm; apparent (effective) KD, to be taken as the upper limit since complexes of one colour are not seen

Binder	binding (Rvs161 (S. cerevisiae) [1])	binding (Rvs161 (S. cerevisiae) [2])	binding (Rvs167)	binding (End3 (S. cerevisiae) [3])	binding (Ede1 (S. cerevisiae))	binding (End3 (S. cerevisiae) [4])
B1	no binding	no binding	binds	–	–	–
B2	–	–	–	no binding	no binding	no binding
